Measured values reported in patent EP3611183B1, “EPITOPE PEPTIDE SPECIFICALLY RECOGNIZING AUTOANTIBODY AGAINST AQUAPORIN 5, AND USE THEREOF” (Seoul National University R & DB Foundation, priority 2017, dated 2023).
Part of at least one peptide drawing is inferred or uncertain, most often the ends. No end group written: not given here.

Legend:
anti-AQP5 autoantibodies = experiment: Indirect immunofluorescence (IIF) assay: AQP5 staining by human serum/IgG pre-incubated with peptide; assay type: binding; conditions: for frequency of recognition by SS vs control samples: seven peptides originating from the AQP5 sequence; for effect on the staining of AQP5: especially by the control group's sera (Fig. 2A and B)
From the text: This study was done in compliance with the Helsinki Declaration after approvals from the Institutional Review Board of Seoul National University Hospital (IRB number: 0912-011-302) and the Institutional Review Board of Seoul St. Mary's Hospital (IRB number: KC13ONMI0646). From our previous study (12), 13 control and 24 SS serum samples positive for anti-AQP5 IgG were chosen based on the levels of anti-AQP5 IgG and availability. The first 12 control and 12 SS samples had similar low levels of anti-AQP5 IgG, while the rest of the samples had intermediate to high levels. IgG antibodies were purified using a protein A column (ThermoFisher Scientific, Waltham, MA, USA) from the sera of 3 SS patients who were not included in the previous study. A commercial human IgG product purified from pooled normal sera (Sigma-Aldrich Korea, Seoul, Korea) was used as control. All SS patients fulfilled the 2002 American-European Consensus group classification criteria and/or the 2012 American College of Rheumatology criteria. Madin-Darby canine kidney (MDCK) cells expressing full-length human AQP5 (MDCK-AQP5) were maintained in DMEM medium with 10% FBS and 1% penicillin/streptomycin in the presence of G418 (12). A mixture of non-transfected MDCK and MDCK-AQP5 cells (6 × 10^4) was plated onto collagen-coated coverslips of 12 mm diameter. After stimulation with 0.5 mM cAMP for 24 hours, the cells were fixed with 4% paraformaldehyde in PBS (pH 7.4) and subjected to antigen retrieval by incubation in sodium citrate buffer (10 mM sodium citrate, 0.05% Tween-20, pH 6) at 105 °C for 20 min. After blocking with 5% BSA in PBS, the cells were incubated with goat polyclonal antibodies raised against a peptide near the C-terminus of human AQP5 (Santa Cruz, Paso Robles, CA, USA) along with control/SS sera (1:200 dilution) or purified IgG (10 µg) that were pre-incubated overnight with 10 µg synthetic peptides in RIA buffer (10 mM Tris-HCl, 350 mM NaCl, 1% BSA, 1% Triton X-100, 0.5 % Sodium deoxycholate, 0.1% SDS, 10% Horse serum, pH 7.6). Subsequently, the cells were stained with Alexa Fluor 488-conjugated donkey anti-goat IgG (Invitrogen, Carlsbad, CA, USA) and CF™ 594-conjugated rabbit anti-human IgG (Sigma-Aldrich). At least four images of AQP5-expressing cells were randomly selected, based on the goat anti-AQP5 antibody stain, and imaged sequentially for the staining with human IgG using a confocal microscope (Carl Zeiss, Jena, Germany). After coding the images, two individuals blindly determined the relative intensities of the anti-AQP5 human IgG signals by decreasing the brightness of the red signal until all the signals of AQP5 stain disappeared. […] The mean of the Δ brightness was used to express the anti-AQP5 IgG level in each sample. The differences in proportion between two groups were determined by Fisher's exact test. Differences in means between the experimental and control groups were determined by Student's t-test, while the differences among peptides were determined by Oneway ANOVA. All statistical analyses were performed using SPSS (SPSS Inc., Chicago, USA). To analyze the epitopes recognized by anti-AQP5 autoantibodies, MDCK-AQP5 cells were double stained with goat anti-AQP5 antibodies and serum from either control subjects or SS patients that were pre-incubated with each peptide (Fig. 2A). The intensity of AQP5 staining by human IgG in the presence of each peptide was expressed as the percentage of control conditions in the absence of peptides (Table 2). Because the normalized intensities of AQP5 staining in the presence of IRP varied from 69 to 173 depending on the sample, signal intensities smaller than 62.2, which is the mean - 2SD of values in the presence of IRP, were regarded as being inhibited by the corresponding peptide.

human AQP5 = experiment: Transepithelial water flow measurement in MDCK-AQP5 cells; assay type: cell-based; conditions: SS-IgG pre-absorbed with 20 µg peptide overnight (Fig. 3D)

WPSALPT [peptide A, WPSALPT]
frequency of recognition by SS vs control samples (anti-AQP5 autoantibodies): more frequently recognized by SS than by control samples | water permeability after pre-incubation of SS-IgG with peptide (human AQP5): restored the water permeability to control levels in most cases

NNNTTQG [C2, NNNTTQG]
frequency of recognition by SS vs control samples (anti-AQP5 autoantibodies): more frequently recognized by SS than by control samples | water permeability after pre-incubation of SS-IgG with peptide (human AQP5): restored the water permeability to control levels in most cases

NPARSFG [E3, NPARSFG]
ability to mimic loop E (anti-AQP5 autoantibodies): not able to mimic loop E | effect on the staining of AQP5 (anti-AQP5 autoantibodies): often increased the staining of AQP5

AFGLAIGT [peptide H, AFGLAIGT, reference compound]
control samples inhibited by / recognizing the peptide (anti-AQP5 autoantibodies; 14 control samples (13 sera, 1 control-IgG), inhibited = signal intensity smaller than 62.2): None | SS samples inhibited by / recognizing the peptide (anti-AQP5 autoantibodies; 27 SS samples (24 sera, 3 purified IgG), inhibited = signal intensity smaller than 62.2): two | effect on the staining of AQP5 (anti-AQP5 autoantibodies): often increased the staining of AQP5
